{"sequences": {"note": "The chains behind the UniProt entries cited, without tags or fusion partners.", "UniProt P04198": "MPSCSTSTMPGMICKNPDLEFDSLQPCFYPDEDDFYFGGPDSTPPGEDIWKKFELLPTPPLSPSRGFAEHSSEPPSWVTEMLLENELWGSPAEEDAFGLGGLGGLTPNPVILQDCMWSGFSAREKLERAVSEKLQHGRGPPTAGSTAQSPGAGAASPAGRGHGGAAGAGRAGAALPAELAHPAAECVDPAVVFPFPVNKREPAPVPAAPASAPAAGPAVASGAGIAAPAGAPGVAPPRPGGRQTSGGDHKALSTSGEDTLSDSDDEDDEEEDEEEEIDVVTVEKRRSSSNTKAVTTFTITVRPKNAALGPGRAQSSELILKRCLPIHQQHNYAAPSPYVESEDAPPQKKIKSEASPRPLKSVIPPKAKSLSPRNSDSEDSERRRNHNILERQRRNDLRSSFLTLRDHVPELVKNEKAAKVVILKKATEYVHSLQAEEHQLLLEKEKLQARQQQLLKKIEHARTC", "UniProt Q9Y4A5": "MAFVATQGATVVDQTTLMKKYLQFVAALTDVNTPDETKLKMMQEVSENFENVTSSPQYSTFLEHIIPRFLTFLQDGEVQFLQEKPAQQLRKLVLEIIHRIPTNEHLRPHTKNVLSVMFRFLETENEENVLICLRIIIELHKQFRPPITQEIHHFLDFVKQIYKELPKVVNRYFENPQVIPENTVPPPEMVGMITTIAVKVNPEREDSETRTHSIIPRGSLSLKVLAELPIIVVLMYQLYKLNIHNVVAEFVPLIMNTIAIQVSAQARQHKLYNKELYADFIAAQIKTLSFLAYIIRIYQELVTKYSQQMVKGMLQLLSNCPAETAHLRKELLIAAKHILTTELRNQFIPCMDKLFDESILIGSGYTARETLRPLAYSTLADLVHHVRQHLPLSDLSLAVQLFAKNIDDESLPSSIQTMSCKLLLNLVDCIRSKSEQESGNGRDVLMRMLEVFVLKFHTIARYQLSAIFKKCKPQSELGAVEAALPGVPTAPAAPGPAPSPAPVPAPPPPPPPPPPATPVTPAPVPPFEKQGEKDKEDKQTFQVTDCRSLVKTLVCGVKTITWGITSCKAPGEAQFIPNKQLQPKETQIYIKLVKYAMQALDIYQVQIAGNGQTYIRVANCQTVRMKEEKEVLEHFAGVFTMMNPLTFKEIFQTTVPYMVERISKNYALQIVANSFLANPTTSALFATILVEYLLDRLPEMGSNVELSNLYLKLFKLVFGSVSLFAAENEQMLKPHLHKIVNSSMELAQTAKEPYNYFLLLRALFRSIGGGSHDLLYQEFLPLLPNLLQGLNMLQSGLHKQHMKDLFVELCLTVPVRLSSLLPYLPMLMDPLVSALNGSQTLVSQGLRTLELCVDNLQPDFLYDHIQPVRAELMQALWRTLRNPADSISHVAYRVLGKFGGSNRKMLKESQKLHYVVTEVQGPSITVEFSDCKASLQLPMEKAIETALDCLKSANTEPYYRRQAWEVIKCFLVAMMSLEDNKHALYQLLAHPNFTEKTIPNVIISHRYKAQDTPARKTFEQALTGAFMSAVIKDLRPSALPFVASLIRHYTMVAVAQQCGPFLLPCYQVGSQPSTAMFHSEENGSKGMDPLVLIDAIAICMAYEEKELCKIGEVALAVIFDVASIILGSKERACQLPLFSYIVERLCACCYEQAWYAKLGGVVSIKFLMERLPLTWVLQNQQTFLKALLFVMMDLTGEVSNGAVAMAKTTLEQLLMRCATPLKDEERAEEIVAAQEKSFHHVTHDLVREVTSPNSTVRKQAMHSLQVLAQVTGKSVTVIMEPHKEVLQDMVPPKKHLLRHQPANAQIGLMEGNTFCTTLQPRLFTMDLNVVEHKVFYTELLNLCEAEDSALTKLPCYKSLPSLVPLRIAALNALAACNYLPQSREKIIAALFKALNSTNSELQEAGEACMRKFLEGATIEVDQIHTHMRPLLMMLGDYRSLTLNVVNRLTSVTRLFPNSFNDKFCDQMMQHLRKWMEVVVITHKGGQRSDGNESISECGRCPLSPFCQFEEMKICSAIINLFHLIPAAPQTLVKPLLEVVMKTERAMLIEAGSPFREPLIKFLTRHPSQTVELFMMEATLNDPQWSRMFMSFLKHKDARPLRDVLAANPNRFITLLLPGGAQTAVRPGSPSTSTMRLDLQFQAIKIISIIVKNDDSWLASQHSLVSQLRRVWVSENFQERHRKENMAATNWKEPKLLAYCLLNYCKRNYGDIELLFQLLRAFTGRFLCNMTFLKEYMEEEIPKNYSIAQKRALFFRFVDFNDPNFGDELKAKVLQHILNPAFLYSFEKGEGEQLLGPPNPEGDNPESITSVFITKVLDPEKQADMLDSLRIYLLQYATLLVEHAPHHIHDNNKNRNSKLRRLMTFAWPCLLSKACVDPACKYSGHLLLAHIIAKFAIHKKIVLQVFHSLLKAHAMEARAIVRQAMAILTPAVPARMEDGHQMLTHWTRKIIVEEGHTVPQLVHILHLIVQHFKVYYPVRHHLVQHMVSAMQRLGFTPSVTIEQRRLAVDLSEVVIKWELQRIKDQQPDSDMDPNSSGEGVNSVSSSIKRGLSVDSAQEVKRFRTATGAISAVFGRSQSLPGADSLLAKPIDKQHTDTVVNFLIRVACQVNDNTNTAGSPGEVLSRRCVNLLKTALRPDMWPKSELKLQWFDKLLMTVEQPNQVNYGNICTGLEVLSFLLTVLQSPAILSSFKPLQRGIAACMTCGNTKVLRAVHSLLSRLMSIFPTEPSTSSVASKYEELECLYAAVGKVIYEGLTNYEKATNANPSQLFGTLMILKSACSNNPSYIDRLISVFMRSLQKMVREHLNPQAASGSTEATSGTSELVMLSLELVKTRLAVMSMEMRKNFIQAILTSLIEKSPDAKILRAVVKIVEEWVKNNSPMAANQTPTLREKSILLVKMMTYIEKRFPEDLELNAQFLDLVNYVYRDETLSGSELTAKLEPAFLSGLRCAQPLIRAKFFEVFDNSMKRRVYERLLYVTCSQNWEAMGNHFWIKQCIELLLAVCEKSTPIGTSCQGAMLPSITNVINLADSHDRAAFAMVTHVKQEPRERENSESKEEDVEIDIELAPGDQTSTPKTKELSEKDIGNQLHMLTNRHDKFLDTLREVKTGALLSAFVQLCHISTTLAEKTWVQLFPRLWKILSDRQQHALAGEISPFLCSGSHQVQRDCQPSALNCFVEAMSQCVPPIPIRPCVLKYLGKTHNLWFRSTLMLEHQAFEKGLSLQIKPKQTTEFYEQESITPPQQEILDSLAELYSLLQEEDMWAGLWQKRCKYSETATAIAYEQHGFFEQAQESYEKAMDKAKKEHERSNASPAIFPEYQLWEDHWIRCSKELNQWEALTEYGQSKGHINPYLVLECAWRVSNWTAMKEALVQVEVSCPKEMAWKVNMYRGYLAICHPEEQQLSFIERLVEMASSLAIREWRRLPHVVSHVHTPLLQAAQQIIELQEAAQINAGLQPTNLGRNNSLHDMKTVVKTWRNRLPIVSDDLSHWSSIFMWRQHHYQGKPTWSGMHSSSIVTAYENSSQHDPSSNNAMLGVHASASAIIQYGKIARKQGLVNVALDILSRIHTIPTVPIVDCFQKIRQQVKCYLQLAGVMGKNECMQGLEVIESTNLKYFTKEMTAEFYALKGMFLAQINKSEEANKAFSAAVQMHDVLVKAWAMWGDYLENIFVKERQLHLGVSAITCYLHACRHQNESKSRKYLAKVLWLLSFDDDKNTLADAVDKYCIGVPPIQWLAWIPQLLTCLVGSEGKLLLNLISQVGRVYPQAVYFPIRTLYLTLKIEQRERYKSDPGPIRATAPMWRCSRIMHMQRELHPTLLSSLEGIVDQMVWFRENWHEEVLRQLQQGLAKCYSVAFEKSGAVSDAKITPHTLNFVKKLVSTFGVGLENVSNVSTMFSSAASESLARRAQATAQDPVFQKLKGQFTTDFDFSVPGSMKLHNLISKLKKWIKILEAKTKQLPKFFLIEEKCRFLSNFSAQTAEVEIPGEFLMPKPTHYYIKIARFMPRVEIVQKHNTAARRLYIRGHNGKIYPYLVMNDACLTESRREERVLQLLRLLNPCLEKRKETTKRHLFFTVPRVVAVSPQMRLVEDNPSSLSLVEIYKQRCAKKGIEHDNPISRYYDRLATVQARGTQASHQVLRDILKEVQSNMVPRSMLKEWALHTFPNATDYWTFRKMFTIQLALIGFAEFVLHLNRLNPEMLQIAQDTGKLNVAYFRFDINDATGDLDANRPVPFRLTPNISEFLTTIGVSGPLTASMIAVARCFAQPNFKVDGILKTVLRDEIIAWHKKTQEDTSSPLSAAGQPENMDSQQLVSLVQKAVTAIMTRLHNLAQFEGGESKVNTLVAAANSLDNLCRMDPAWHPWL"}, "source": "paper doi:10.1101/2023.08.16.553474", "target": "MYCN (human (endogenous in IMR-32 and IMR-5)) (UniProt P04198)", "assay": "affinity purification with mass spectrometry", "note": "No constants are given. Whether binding was seen depends on the method and setting. Binding seen in cells or lysates may run through a third protein. A yes stands for co-enrichment or nearness to the bait. Other partners may have been found.", "data": [{"substance": "TRRAP (from UniProt Q9Y4A5 1-3859)", "values": [{"measurement": "binding", "result": "binds"}]}]}
